# Results: article PMC4045235
# The chains behind the UniProt entries cited, without tags or fusion partners. Residues count along the entry.
# UniProt P20700: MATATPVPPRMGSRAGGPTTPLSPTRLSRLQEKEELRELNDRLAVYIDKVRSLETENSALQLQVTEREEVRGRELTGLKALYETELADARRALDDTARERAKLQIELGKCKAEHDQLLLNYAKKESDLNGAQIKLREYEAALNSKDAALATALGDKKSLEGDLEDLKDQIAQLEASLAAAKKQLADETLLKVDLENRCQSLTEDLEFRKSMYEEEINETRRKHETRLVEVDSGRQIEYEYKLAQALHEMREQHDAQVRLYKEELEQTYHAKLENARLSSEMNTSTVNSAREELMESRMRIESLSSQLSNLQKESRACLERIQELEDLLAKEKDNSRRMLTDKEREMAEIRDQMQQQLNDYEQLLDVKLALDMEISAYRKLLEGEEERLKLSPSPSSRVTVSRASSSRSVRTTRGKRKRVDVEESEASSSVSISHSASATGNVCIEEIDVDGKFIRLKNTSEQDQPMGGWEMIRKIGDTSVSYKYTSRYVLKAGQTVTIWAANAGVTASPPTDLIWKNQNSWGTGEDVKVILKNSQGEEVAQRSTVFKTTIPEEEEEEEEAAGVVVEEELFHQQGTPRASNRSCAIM
# UniProt P30101, residues 25-505: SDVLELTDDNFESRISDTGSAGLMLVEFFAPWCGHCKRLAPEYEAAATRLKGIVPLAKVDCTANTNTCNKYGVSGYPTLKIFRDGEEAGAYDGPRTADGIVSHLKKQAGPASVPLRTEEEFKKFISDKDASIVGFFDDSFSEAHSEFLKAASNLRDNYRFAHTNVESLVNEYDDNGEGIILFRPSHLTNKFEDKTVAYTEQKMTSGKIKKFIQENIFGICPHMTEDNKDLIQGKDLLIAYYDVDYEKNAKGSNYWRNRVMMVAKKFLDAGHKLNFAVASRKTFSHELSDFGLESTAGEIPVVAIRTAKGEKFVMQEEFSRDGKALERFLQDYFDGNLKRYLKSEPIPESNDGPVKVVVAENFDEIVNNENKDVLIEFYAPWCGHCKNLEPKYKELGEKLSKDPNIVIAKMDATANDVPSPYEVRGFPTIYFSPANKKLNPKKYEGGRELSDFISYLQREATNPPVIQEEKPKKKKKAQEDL
# UniProt Q15149: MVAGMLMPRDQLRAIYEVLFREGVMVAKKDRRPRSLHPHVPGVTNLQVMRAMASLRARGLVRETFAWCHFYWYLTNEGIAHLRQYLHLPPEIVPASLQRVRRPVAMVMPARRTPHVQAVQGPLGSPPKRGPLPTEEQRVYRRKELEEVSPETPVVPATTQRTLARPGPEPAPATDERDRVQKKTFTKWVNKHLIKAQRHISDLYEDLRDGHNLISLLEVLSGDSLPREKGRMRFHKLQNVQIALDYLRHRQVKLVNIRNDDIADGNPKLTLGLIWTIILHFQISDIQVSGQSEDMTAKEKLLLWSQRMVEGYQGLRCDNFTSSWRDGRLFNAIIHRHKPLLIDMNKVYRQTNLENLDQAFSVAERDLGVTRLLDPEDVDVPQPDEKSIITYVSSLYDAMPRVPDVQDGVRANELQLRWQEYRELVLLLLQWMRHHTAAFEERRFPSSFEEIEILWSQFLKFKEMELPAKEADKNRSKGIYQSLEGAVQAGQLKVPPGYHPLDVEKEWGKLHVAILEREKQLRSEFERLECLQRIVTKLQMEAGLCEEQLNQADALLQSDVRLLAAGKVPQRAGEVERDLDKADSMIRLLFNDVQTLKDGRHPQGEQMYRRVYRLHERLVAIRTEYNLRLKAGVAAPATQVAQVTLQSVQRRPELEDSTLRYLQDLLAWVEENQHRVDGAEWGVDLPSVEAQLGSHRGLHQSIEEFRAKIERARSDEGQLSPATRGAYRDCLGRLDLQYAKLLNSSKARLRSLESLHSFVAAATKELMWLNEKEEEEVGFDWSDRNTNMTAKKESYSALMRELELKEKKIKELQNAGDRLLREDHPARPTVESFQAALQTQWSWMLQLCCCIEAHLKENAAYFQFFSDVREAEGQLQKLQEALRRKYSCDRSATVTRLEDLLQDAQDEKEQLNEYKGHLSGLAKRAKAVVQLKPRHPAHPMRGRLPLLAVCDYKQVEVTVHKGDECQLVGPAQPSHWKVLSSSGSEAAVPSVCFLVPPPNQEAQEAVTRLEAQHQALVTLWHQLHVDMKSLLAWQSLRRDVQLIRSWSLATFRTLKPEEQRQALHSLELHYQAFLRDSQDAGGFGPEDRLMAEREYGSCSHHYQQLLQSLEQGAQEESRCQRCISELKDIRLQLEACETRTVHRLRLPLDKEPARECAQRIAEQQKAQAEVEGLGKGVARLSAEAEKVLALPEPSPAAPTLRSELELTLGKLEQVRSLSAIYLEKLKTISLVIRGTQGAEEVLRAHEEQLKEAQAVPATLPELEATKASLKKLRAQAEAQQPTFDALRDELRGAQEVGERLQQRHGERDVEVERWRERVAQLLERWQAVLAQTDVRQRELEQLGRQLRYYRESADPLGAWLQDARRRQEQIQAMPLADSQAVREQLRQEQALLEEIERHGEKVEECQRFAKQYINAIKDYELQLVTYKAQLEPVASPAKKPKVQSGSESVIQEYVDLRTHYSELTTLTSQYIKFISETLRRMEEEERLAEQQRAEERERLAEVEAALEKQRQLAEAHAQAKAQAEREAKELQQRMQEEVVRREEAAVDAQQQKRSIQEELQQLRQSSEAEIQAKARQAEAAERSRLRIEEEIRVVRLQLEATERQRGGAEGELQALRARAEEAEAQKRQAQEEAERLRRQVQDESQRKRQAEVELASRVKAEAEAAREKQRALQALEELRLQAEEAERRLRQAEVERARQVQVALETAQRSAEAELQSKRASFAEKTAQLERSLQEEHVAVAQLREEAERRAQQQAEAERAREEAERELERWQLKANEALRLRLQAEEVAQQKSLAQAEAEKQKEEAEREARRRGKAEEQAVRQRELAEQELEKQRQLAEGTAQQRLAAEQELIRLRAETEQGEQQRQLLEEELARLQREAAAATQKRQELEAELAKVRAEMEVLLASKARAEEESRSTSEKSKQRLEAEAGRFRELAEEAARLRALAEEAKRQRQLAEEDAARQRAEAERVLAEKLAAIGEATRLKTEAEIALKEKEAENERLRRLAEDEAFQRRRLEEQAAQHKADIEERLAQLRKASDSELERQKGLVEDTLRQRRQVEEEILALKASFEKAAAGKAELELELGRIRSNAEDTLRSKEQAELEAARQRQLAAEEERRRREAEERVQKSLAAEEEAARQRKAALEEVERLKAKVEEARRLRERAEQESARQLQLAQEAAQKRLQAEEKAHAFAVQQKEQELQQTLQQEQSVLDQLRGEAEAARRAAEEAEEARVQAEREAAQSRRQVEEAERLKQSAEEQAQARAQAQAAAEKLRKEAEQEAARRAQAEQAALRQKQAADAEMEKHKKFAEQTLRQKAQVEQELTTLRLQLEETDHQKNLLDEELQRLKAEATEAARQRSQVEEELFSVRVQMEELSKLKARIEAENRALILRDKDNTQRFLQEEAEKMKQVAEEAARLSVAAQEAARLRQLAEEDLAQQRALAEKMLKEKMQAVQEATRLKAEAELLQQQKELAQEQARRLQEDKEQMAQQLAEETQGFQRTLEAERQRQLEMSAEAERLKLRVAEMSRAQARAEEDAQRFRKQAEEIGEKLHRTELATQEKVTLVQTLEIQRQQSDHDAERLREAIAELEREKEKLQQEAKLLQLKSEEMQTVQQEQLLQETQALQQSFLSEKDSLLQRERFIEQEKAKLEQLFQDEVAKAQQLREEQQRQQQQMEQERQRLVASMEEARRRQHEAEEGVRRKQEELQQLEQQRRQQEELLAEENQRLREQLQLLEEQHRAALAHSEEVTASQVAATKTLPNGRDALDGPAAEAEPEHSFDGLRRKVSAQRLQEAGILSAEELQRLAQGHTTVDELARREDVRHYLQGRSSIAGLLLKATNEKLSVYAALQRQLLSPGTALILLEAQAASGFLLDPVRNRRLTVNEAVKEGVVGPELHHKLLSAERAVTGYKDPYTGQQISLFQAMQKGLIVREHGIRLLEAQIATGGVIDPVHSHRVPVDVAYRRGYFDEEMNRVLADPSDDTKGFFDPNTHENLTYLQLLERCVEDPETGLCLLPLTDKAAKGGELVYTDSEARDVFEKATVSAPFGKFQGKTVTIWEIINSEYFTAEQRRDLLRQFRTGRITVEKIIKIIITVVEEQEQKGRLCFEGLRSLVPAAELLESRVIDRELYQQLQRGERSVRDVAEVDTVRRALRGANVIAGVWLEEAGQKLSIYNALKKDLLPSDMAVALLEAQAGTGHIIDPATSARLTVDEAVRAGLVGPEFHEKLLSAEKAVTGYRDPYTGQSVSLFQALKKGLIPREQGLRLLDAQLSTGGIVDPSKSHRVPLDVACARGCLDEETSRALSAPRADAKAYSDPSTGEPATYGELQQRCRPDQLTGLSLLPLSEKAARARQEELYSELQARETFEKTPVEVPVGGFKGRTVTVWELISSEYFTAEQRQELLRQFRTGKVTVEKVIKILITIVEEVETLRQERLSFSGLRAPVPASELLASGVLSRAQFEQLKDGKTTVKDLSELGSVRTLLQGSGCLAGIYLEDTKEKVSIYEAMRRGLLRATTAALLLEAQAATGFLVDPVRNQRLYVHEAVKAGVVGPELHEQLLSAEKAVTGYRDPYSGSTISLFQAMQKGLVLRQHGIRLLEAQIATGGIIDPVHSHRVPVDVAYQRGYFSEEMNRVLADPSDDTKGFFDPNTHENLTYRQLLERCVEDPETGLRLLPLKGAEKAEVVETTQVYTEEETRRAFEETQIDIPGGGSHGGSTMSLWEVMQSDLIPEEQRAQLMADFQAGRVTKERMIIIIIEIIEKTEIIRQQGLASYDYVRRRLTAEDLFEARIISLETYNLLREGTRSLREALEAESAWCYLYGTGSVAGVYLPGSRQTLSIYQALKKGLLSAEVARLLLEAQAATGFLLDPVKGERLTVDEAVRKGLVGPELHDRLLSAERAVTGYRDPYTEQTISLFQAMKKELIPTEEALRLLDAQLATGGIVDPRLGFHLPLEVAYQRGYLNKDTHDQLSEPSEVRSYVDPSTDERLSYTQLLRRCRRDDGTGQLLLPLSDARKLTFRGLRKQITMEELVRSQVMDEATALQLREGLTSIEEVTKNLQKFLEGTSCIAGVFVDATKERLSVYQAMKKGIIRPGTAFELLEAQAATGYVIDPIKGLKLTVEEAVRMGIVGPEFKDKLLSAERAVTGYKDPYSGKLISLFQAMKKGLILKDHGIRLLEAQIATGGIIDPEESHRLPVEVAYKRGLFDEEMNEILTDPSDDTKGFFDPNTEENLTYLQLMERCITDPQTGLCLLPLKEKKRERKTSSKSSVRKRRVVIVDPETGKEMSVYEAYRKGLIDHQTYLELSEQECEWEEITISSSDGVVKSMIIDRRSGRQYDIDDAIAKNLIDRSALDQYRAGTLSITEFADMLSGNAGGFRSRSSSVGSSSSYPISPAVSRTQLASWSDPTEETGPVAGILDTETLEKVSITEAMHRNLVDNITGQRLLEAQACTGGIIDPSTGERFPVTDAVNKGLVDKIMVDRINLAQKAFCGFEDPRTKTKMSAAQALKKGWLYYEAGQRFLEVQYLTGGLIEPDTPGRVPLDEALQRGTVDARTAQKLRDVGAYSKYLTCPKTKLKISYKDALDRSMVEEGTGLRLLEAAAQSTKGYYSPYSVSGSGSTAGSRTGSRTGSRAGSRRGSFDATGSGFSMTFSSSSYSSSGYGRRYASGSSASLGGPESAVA
# UniProt P13010: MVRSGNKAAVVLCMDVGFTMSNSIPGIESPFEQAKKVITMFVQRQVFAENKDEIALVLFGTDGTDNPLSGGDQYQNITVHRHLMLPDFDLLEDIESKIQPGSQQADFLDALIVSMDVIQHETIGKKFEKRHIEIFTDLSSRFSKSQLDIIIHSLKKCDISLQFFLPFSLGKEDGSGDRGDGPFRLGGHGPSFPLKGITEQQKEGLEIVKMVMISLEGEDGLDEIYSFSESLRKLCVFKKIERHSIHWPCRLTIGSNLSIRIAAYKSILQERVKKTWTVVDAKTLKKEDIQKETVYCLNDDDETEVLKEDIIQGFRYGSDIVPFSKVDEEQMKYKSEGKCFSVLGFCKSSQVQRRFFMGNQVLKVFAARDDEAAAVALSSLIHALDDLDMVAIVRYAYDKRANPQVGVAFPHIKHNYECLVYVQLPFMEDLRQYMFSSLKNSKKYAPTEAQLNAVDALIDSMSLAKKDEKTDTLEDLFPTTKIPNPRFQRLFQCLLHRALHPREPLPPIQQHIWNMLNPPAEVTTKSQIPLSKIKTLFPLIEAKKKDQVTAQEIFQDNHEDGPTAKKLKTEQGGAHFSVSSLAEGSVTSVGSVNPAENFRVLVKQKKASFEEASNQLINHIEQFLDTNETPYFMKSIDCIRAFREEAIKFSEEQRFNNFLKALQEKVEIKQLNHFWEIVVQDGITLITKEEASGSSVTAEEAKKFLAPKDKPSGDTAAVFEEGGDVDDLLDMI
# Results are given in words; binding and its absence hold for the method and conditions named. Binding seen in cells or lysates may run through a third protein. These calls come from enrichment with a bait or labelling near it, and not all partners need be listed.
# T1: CCDC8 (UniProt Q9H0W5)
# T1 sequence: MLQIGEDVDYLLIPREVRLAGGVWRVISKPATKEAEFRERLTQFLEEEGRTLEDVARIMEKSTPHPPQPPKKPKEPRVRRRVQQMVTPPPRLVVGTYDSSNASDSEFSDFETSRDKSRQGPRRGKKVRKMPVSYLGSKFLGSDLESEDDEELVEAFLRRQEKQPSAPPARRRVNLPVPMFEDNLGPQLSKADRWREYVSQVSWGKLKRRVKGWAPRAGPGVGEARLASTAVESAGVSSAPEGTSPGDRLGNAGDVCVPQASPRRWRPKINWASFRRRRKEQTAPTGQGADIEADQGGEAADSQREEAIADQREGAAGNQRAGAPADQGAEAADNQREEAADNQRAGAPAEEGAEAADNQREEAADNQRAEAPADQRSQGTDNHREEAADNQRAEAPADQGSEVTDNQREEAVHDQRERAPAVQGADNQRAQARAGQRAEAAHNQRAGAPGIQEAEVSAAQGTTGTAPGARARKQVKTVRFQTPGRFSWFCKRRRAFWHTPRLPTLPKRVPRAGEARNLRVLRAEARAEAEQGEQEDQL
# Assays:
# Assay in all cases: affinity purification with mass spectrometry; lysates of HEK293 cells transfected with CUL7, V5-OBSL1 or CCDC8, 24 h post-transfection; IP with CUL7, V5 or CCDC8 antibody on protein G Dynabeads; SDS-PAGE, GeLC-MS/MS; proteins found in no antibody control IPs removed; only proteins present in all three IPs kept
# CCDC8 = target: T1, CCDC8
# CUL7 = CUL7 (UniProt Q14999)
# V5-OBSL1 = V5-OBSL1 (UniProt O75147)
binding (CCDC8),binding (CUL7),binding (V5-OBSL1),Molecule
binds,binds,binds,LMNA (from UniProt P02545 1-646)
binds,binds,binds,NUMA1 (from UniProt Q14980 1-2115)
binds,binds,binds,PARP1 (from UniProt P09874 1-1014)
binds,binds,binds,PTBP1 (from UniProt P26599 1-557)
binds,binds,binds,RBMX (from UniProt P38159 1-391)
binds,binds,binds,TPR (from UniProt P12270 1-2363)
binds,binds,binds,TRIM28 (from UniProt Q13263 1-835)
binds,binds,binds,XRCC6 (from UniProt P12956 1-609)
binds,binds,binds,YWHAE (from UniProt P62258 1-255)
binds,binds,binds,"HNRNPA0 (protein, UniProt Q13151 1-305) MENSQLCKLFIGGLNVQTSESGLRGHFEAFGTLTDCVVVVNPQTKRSRCFGFVTYSNVEEADAAMAASPHAVDGNTVELKRAVSREDSARPGAHAKVKKLFVGGLKGDVAEGDLIEHFSQFGTVEKAEIIADKQSGKKRGFGFVYFQNHDAADKAAVVKFHPIQGHRVEVKKAVPKEDIYSGGGGGGSRSSRGGRGGRGRGGGRDQNGLSKGGGGGYNSYGGYGGGGGGGYNAYGGGGGGSSYGGSDYGNGFGGFGSYSQHQSSYGPMKSGGGGGGGGSSWGGRSNSGPYRGGYGGGGGYGGSSF"
binds,binds,binds,"CCT2 (protein, UniProt P78371 1-535) MASLSLAPVNIFKAGADEERAETARLTSFIGAIAIGDLVKSTLGPKGMDKILLSSGRDASLMVTNDGATILKNIGVDNPAAKVLVDMSRVQDDEVGDGTTSVTVLAAELLREAESLIAKKIHPQTIIAGWREATKAAREALLSSAVDHGSDEVKFRQDLMNIAGTTLSSKLLTHHKDHFTKLAVEAVLRLKGSGNLEAIHIIKKLGGSLADSYLDEGFLLDKKIGVNQPKRIENAKILIANTGMDTDKIKIFGSRVRVDSTAKVAEIEHAEKEKMKEKVERILKHGINCFINRQLIYNYPEQLFGAAGVMAIEHADFAGVERLALVTGGEIASTFDHPELVKLGSCKLIEEVMIGEDKLIHFSGVALGEACTIVLRGATQQILDEAERSLHDALCVLAQTVKDSRTVYGGGCSEMLMAHAVTQLANRTPGKEAVAMESYAKALRMLPTIIADNAGYDSADLVAQLRAAHSEGNTTAGLDMREGTIGDMAILGITESFQVKRQVLLSAAEAAEVILRVDNIIKAAPRKRVPDHHPC"

# The remaining lines, values behind:
Molecule,binding (CCDC8),binding (CUL7),binding (V5-OBSL1)
LMNB1 (from UniProt P20700 1-586),binds,binds,binds
NOP56 (from UniProt O00567 1-594),binds,binds,binds
NPM1 (from UniProt P06748 1-294),binds,binds,binds
NUP205 (from UniProt Q92621 1-2012),binds,binds,binds
PABPC1 (from UniProt P11940 1-636),binds,binds,binds
PDIA3 (from UniProt P30101 25-505),binds,binds,binds
PLEC (from UniProt Q15149 1-4684),binds,binds,binds
PPP2R1A (from UniProt P30153 1-589),binds,binds,binds
PRKDC (from UniProt P78527 1-4128),binds,binds,binds
SNRNP200 (from UniProt O75643 1-2136),binds,binds,binds
SRSF9 (from UniProt Q13242 1-221),binds,binds,binds
TJP1 (from UniProt Q07157 1-1748),binds,binds,binds
XRCC5 (from UniProt P13010 1-732),binds,binds,binds
YBX1 (from UniProt P67809 1-324),binds,binds,binds
"KHSRP (protein, UniProt Q92945 1-711) MSDYSTGGPPPGPPPPAGGGGGAGGAGGGPPPGPPGAGDRGGGGPGGGGPGGGSAGGPSQPPGGGGPGIRKDAFADAVQRARQIAAKIGGDAATTVNNSTPDFGFGGQKRQLEDGDQPESKKLASQGDSISSQLGPIHPPPRTSMTEEYRVPDGMVGLIIGRGGEQINKIQQDSGCKVQISPDSGGLPERSVSLTGAPESVQKAKMMLDDIVSRGRGGPPGQFHDNANGGQNGTVQEIMIPAGKAGLVIGKGGETIKQLQERAGVKMILIQDGSQNTNVDKPLRIIGDPYKVQQACEMVMDILRERDQGGFGDRNEYGSRIGGGIDVPVPRHSVGVVIGRSGEMIKKIQNDAGVRIQFKQDDGTGPEKIAHIMGPPDRCEHAARIINDLLQSLRSGPPGPPGGPGMPPGGRGRGRGQGNWGPPGGEMTFSIPTHKCGLVIGRGGENVKAINQQTGAFVEISRQLPPNGDPNFKLFIIRGSPQQIDHAKQLIEEKIEGPLCPVGPGPGGPGPAGPMGPFNPGPFNQGPPGAPPHAGGPPPHQYPPQGWGNTYPQWQPPAPHDPSKAAAAAADPNAAWAAYYSHYYQQPPGPVPGPAPAPAAPPAQGEPPQPPPTGQSDYTKAWEEYYKKIGQQPQQPGAPPQQDYTKAWEEYYKKQAQVATGGGPGAPPGSQPDYSAAWAEYYRQQAAYYGQTPGPGGPQPPPTQQGQQQAQ",binds,binds,binds
"SMC1A (protein, UniProt Q14683 1-1233) MGFLKLIEIENFKSYKGRQIIGPFQRFTAIIGPNGSGKSNLMDAISFVLGEKTSNLRVKTLRDLIHGAPVGKPAANRAFVSMVYSEEGAEDRTFARVIVGGSSEYKINNKVVQLHEYSEELEKLGILIKARNFLVFQGAVESIAMKNPKERTALFEEISRSGELAQEYDKRKKEMVKAEEDTQFNYHRKKNIAAERKEAKQEKEEADRYQRLKDEVVRAQVQLQLFKLYHNEVEIEKLNKELASKNKEIEKDKKRMDKVEDELKEKKKELGKMMREQQQIEKEIKEKDSELNQKRPQYIKAKENTSHKIKKLEAAKKSLQNAQKHYKKRKGDMDELEKEMLSVEKARQEFEERMEEESQSQGRDLTLEENQVKKYHRLKEEASKRAATLAQELEKFNRDQKADQDRLDLEERKKVETEAKIKQKLREIEENQKRIEKLEEYITTSKQSLEEQKKLEGELTEEVEMAKRRIDEINKELNQVMEQLGDARIDRQESSRQQRKAEIMESIKRLYPGSVYGRLIDLCQPTQKKYQIAVTKVLGKNMDAIIVDSEKTGRDCIQYIKEQRGEPETFLPLDYLEVKPTDEKLRELKGAKLVIDVIRYEPPHIKKALQYACGNALVCDNVEDARRIAFGGHQRHKTVALDGTLFQKSGVISGGASDLKAKARRWDEKAVDKLKEKKERLTEELKEQMKAKRKEAELRQVQSQAHGLQMRLKYSQSDLEQTKTRHLALNLQEKSKLESELANFGPRINDIKRIIQSREREMKDLKEKMNQVEDEVFEEFCREIGVRNIREFEEEKVKRQNEIAKKRLEFENQKTRLGIQLDFEKNQLKEDQDKVHMWEQTVKKDENEIEKLKKEEQRHMKIIDETMAQLQDLKNQHLAKKSEVNDKNHEMEEIRKKLGGANKEMTHLQKEVTAIETKLEQKRSDRHNLLQACKMQDIKLPLSKGTMDDISQEEGSSQGEDSVSGSQRISSIYAREALIEIDYGDLCEDLKDAQAEEEIKQEMNTLQQKLNEQQSVLQRIAAPNMKAMEKLESVRDKFQETSDEFEAARKRAKKAKQAFEQIKKERFDRFNACFESVATNIDEIYKALSRNSSAQAFLGPENPEEPYLDGINYNCVAPGKRFRPMDNLSGGEKTVAALALLFAIHSYKPAPFFVLDEIDAALDNTNIGKVANYIKEQSTCNFQAIVISLKEEFYTKAESLIGVYPEQGDCVISKVLTFDLTKYPDANPNPNEQ",binds,binds,binds
